{
  "sequences": {"note": "By UniProt entry, the sequences of proteins in these tests, tags left out.", "UniProt O43149": "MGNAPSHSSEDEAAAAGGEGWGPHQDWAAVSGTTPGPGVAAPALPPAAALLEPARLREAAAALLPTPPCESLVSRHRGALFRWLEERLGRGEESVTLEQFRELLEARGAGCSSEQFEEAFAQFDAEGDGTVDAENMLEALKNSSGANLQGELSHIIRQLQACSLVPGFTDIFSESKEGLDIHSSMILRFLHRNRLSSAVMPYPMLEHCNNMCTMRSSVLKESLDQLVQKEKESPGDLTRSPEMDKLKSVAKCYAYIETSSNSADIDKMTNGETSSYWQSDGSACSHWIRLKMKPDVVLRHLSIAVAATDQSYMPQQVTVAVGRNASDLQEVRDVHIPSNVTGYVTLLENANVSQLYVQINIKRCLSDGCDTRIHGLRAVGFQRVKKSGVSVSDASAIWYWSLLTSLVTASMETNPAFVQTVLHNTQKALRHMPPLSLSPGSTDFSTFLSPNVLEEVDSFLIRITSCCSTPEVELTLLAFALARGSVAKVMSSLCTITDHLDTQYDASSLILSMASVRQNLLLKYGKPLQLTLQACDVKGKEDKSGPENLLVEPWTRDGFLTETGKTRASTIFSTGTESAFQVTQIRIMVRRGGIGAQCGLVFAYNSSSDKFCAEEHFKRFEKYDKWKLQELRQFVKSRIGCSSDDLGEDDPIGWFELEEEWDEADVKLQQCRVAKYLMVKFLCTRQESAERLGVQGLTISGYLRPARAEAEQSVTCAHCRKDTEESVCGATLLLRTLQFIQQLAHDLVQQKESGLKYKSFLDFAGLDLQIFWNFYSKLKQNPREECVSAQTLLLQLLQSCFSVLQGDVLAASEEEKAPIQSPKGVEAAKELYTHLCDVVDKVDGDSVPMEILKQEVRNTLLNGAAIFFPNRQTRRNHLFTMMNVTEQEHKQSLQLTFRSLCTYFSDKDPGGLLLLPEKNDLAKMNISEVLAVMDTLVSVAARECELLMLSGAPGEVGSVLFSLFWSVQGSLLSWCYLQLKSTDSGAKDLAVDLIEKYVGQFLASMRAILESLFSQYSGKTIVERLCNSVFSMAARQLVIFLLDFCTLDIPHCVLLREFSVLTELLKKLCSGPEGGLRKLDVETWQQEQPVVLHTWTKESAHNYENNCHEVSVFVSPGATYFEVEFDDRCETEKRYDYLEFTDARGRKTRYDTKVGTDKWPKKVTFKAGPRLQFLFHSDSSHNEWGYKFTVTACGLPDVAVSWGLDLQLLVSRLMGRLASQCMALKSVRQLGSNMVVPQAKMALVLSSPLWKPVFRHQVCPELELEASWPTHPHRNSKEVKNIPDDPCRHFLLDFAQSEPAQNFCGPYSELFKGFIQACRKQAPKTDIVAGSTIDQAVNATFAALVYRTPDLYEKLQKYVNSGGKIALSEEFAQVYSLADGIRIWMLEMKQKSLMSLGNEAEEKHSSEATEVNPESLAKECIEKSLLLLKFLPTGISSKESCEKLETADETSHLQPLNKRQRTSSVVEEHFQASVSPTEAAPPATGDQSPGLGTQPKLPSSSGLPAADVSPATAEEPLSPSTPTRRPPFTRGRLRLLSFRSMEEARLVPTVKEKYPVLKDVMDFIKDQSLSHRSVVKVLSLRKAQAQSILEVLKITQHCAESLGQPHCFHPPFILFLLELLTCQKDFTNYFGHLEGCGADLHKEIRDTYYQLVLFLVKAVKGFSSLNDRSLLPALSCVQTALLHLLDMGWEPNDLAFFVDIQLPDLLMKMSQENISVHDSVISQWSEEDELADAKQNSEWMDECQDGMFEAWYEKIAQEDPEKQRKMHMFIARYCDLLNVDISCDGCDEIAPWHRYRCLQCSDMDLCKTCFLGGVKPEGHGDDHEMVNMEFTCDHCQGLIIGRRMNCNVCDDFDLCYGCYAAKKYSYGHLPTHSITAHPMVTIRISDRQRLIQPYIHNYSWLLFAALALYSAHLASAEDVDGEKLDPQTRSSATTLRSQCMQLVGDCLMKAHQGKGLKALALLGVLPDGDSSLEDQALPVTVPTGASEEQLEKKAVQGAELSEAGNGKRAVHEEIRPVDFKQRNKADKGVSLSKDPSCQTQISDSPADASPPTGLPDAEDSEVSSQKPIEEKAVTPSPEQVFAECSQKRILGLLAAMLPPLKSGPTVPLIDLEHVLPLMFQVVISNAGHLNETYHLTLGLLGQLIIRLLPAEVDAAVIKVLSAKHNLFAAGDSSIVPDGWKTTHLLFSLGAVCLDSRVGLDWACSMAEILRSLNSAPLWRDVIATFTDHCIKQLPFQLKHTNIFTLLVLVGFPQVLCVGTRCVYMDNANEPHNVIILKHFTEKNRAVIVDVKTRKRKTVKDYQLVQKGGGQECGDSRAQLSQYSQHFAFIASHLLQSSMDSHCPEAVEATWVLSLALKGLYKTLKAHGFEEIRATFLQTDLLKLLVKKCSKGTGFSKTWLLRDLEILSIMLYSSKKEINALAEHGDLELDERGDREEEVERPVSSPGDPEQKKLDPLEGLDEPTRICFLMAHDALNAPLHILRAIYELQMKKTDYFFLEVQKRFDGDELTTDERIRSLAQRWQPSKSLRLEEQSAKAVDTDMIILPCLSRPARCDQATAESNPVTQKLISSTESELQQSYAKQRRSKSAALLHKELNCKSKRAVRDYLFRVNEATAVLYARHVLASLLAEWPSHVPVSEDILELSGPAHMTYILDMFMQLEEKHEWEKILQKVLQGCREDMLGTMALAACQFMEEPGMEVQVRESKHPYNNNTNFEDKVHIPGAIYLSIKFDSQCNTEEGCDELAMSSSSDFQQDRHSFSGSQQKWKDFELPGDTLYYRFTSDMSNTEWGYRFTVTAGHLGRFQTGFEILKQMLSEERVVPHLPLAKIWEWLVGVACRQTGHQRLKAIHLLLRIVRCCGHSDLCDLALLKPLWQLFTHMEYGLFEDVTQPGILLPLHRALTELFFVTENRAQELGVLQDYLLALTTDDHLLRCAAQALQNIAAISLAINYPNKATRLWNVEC", "UniProt Q8TD26": "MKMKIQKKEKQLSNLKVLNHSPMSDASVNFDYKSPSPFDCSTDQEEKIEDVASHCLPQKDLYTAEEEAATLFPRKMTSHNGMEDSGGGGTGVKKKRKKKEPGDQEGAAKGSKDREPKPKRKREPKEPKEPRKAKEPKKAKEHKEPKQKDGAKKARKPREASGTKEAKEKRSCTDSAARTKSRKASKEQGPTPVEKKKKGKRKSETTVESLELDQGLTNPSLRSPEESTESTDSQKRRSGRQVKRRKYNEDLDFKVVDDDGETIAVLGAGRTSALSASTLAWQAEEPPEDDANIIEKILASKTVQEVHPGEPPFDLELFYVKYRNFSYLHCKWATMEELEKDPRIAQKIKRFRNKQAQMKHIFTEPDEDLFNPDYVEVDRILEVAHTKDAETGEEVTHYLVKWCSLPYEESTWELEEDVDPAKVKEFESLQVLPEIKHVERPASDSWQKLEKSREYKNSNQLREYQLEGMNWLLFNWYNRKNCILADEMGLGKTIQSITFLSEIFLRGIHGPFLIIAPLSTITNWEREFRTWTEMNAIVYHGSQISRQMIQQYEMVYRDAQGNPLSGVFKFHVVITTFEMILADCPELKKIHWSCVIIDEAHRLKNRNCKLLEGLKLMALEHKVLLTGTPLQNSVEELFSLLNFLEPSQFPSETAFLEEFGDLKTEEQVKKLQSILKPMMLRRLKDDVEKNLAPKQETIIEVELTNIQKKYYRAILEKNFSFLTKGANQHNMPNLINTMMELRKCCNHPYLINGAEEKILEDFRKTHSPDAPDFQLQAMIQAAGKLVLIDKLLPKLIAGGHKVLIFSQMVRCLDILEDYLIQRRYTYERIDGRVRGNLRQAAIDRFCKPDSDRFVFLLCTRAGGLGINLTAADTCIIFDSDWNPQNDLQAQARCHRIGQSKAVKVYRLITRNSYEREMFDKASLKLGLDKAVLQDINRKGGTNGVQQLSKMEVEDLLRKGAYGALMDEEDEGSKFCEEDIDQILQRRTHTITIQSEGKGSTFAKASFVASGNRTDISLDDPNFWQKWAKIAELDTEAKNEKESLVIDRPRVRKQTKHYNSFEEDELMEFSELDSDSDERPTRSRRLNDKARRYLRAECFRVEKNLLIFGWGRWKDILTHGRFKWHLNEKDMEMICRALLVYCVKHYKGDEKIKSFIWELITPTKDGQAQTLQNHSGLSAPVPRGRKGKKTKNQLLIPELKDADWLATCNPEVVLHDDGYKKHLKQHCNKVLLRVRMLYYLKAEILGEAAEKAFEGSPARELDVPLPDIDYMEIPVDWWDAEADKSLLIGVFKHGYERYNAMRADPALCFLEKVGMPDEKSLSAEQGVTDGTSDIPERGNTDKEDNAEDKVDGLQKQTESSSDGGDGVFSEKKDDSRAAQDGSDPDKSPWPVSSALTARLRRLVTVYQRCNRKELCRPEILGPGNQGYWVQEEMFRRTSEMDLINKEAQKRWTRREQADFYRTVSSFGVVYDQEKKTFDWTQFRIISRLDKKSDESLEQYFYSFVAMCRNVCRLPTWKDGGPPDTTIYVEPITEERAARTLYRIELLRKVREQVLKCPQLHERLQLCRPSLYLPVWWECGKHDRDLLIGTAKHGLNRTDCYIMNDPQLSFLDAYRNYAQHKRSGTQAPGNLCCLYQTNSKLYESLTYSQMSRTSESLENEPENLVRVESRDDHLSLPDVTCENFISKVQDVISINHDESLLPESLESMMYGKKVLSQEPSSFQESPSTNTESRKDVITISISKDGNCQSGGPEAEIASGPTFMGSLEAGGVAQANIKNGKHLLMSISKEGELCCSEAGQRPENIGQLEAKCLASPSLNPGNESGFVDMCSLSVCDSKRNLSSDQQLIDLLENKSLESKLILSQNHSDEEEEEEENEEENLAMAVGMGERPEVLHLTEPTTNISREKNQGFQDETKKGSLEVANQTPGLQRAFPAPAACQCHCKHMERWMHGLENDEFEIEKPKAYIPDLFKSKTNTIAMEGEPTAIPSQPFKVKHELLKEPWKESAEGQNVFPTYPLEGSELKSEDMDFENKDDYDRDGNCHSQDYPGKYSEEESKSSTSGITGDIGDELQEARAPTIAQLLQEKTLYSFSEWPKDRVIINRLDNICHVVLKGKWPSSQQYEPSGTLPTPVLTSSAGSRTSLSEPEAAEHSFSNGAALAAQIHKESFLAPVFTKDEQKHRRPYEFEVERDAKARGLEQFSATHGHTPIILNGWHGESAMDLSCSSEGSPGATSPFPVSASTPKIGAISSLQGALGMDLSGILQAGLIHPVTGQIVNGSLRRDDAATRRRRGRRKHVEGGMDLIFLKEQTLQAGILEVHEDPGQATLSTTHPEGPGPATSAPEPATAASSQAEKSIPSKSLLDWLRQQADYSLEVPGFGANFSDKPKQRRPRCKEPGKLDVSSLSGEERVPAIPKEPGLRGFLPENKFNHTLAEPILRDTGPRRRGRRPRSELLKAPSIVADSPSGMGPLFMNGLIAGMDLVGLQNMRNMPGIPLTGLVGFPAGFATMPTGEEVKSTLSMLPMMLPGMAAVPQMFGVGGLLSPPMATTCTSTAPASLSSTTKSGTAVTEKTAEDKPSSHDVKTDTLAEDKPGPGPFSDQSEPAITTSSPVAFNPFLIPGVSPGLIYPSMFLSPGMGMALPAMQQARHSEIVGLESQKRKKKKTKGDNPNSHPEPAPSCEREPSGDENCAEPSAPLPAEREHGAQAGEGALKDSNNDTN"},
  "source": "paper doi:10.1101/2025.04.26.650725",
  "target": "Zinc Finger ZZ-Type And EF-Hand Domain Containing 1 (ZZEF1) (human (endogenous in MDA-MB-231)) (UniProt O43149)",
  "experiment": "co-IP",
  "note": "These are yes or no findings as the source states them, for the method shown. Binding seen in cells or lysates may run through a third protein. Some results given as binding are weak or reduced against the parent protein; the word gives no strength.",
  "data": [
    {"substance": "Chromodomain Helicase DNA Binding Protein 6 (CHD6) (from UniProt Q8TD26 1-2715)", "values": [
      {"measurement": "binding", "value": "binds"}
    ]}
  ]
}
